Over roughly 33,000 sequences, “E-score (-0.5 to 0.5)” has its median near -8e-05; the highest 2% begin near 0.23. The list shows a part of the results.
Target: T1, Nrg2 (UniProt P38082)
T1 sequence: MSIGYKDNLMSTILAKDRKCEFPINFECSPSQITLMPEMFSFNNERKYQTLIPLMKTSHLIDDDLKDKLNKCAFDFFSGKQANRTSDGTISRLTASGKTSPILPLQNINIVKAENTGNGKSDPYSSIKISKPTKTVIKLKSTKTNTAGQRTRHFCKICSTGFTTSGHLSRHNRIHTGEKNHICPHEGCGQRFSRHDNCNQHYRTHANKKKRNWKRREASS
Assay: PBM E-score (8-mer binding enrichment) (E-score (-0.5 to 0.5)); higher = stronger / more preferred TF binding
Conditions: protein concentration: 100 nM; construct: GST-full length
Protocol: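 Universal 'all 10-mer' protein binding microarrays (Agilent AMADID 015681) probed with GST-tagged S. cerevisiae TFs (full-length or DBD) made by in vitro transcription/translation (PURExpress), about 100-200 nM. Bound TF was detected with fluorescent anti-GST. Each ungapped 8-mer (which stands for itself and its reverse complement) is scored by the PBM enrichment score (E-score), a modified Wilcoxon-Mann-Whitney statistic from -0.5 to +0.5, computed with the Universal PBM Analysis Suite. Scale: above 0.35 generally sequence-specific binding.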

| Sequence | PBM E-score |
| --- | --- |
| AGTGATAC | -0.0019 |
| ATGTCTAA | 0.0784 |
| GAACAGGA | -0.0211 |
| CAAGTTGC | 0.0505 |
| CCTCCACA | -0.0559 |
| GTGCCTTA | -0.0409 |
| GTTTAACA | -0.0627 |
| AGTACCTC | -0.077 |
| GGCTTCCC | -0.194 |
| AGGTCGAT | 0.105 |
| GATACGAC | 0.0685 |
| GATCTCCA | 0.0533 |
| ACTCTTAG | -0.0539 |
| GAACCAAC | 0.103 |
| GATATCGA | 0.0243 |
| ATCCGCCA | -0.087 |
| ACGTTCAT | -0.178 |
| GGGCCAGA | -0.194 |
| GACACCCA | -0.0539 |
| AAGAATCT | -0.145 |
| TACTTCGA | 0.23 |
| ACGTAAAC | -0.121 |
| AAACCGTC | -0.148 |
| AATGCTAT | 0.00339 |
| GGGCTAGA | -0.0953 |

| Sequence | PBM E-score |
| --- | --- |
| ACTCCTCC | -0.218 |
| AGGCATGA | -0.13 |
| TCGAAAAA | 0.166 |
| AAGCCTCA | -0.176 |
| TCTCCTAA | -0.0733 |
| AACAGCGC | -0.00535 |
| ACAACTAG | -0.055 |
| GGTTCCAA | 0.147 |
| CCGAGCGA | 0.0987 |
| CAAATGCC | -0.0811 |
| AAGACCCG | 0.0509 |
| AATAGGCT | -0.00861 |
| GGGATAAC | -0.0795 |
| CTAATTGC | 0.0943 |
| CAGCGCCC | -0.0558 |
| GGGTCTCA | 0.0513 |
| GTCGGCAA | -0.0874 |
| CCTGTTGC | 0.142 |
| ACCGACTA | -0.367 |
| AGCTGCAA | -0.0919 |
| GGGTGGAC | -0.09 |
| GACCCCGA | 0.0746 |
| CGATTTGA | 0.0683 |
| GAACTCCC | -0.0215 |
| ACTTTATC | 0.0288 |

Not a retest: an excerpt of the list.

| Sequence | PBM E-score |
| --- | --- |
| CCGAGCGA | 0.0987 |
| CAAATGCC | -0.0811 |
| AAGACCCG | 0.0509 |
| AATAGGCT | -0.00861 |

(listing goes on)

| Sequence | PBM E-score |
| --- | --- |
| GGAGCTTA | -0.191 |
| GGGCCTCA | 0.0757 |
| AACGGTGG | -0.171 |
| CATAAGAG | -0.0444 |
| AGAAGCTC | 0.0172 |
| GGAGTGCC | 0.0483 |
| CATGCAGC | -0.0372 |
| AGAGAGGG | -0.151 |
| AAAGCTGC | 0.0809 |
| ATGCCTCG | 0.0817 |
| ACCGGGCA | -0.19 |
| AATGAGCC | -0.164 |
| AAATGTCT | -0.0438 |
| GTCAATCA | -0.0641 |
| CCAAGATC | 0.0488 |
| ATCTTCCC | -0.0523 |
| AACCGATG | 0.0555 |
| CGCGTCCG | 0.0579 |
| ACGATGAC | -0.233 |
| GCCCGACA | 0.101 |
| ACTGCACG | -0.0983 |
| CGCTCGTC | -0.167 |
| GATGATTA | 0.0695 |
| CGTCCGCA | -0.187 |
| ACGTTTCC | -0.16 |

Single values from above.
Value for AATGAGCC under PBM E-score: -0.164
Value for CATAAGAG under PBM E-score: -0.0444
Value for CGTCCGCA under PBM E-score: -0.187
Value for ACTGCACG under PBM E-score: -0.0983
Value for ATCTTCCC under PBM E-score: -0.0523
Value for GGAGCTTA under PBM E-score: -0.191

Additional records.

| Sequence | PBM E-score |
| --- | --- |
| CGCTCCAA | -0.141 |
| CGGAGTTA | -0.0895 |
| GTTCTAAA | -0.0825 |
| AACACTTG | 0.0302 |
| GCCTACAA | 0.0441 |
| CCCCGAGA | -0.0523 |
| TCGAGGAA | -0.0948 |
| GAGGAGTA | -0.0769 |
| GCAACGTA | -0.00927 |
| CACACTTA | -0.0163 |
| AGGCCTGA | -0.118 |
| AGTGGCTG | 0.126 |
| CGATCCAA | -0.033 |
| CTATGTAA | -0.0136 |
| ATCGAATG | 0.06 |
| AGCACTAT | -0.0184 |
| CTAAAAGA | -0.198 |
| GCTTATCA | -0.0144 |
| ATCCGATC | 0.0278 |
| TATATTGA | 0.141 |
| ACAACATC | -0.042 |
| AATAACGC | -0.0905 |
| CCCCGATA | -0.0437 |
| CTCGTGGC | -0.051 |
| GGTGAACC | 0.0324 |

| Sequence | PBM E-score |
| --- | --- |
| CCCTTAAG | 0.189 |
| AGTCTATC | -0.0531 |
| AGTTAGAA | 0.045 |
| CCGGTGTA | -0.106 |
| CCTAAGTA | 0.0734 |
| AACGGCCT | -0.0615 |
| GGCTAACA | 0.0553 |
| ACTCGTAC | -0.0658 |
| ATTAACTA | 0.136 |
| CCAACTGG | 0.135 |
| ATACCGAC | -0.243 |
| ATTAATGG | 0.143 |
| ATATACCA | 0.0362 |
| GCTGAGTA | 0.0995 |
| CCATATAG | 0.0129 |
| TAGGTGGA | -0.136 |
| GGATCATA | -0.00715 |
| AAATATAC | 0.0852 |
| GTTCTCCA | 0.0382 |
| AACTAGTT | -0.0452 |
| CGTATGGA | 0.124 |
| CGACCAAA | 0.222 |
| AGCGATTC | -0.02 |
| AGAGGCCC | -0.074 |
| ATTTTATC | 0.0877 |

| Sequence | PBM E-score |
| --- | --- |
| GAGGTTAA | -0.06 |
| GCCAACCC | -0.0658 |
| AAATACGA | 0.0699 |
| ACGCTACC | -0.262 |
| ACTCCTTG | 0.101 |
| AGTGAACG | -0.176 |
| CCATAGTA | 0.0238 |
| CTGCTACC | -0.0751 |
| ATTCTCGA | 0.169 |
| GCTTAGTA | -0.117 |
| CAATTACC | 0.024 |
| ATCGTGAC | -0.038 |
| CTTCGGTC | 0.0242 |
| ATCTAAAT | -0.00067 |
| CTTTCGCA | -0.0222 |
| AACTAAAC | 0.044 |
| CGCCGGAG | -0.168 |
| CAGGAGGC | -0.118 |
| GCCATCGA | 0.199 |
| CGGCAAAA | -0.0769 |
| CACGAGGC | -0.027 |
| CAAGGTAG | 0.0672 |
| ACGAGGCA | -0.0798 |
| GGGGTCCA | 0.27 |
| GCAAAAGC | -0.0337 |

| Sequence | PBM E-score |
| --- | --- |
| CGGTCGTA | -0.117 |
| AAGCAATT | 0.0783 |
| AGATGTGA | 0.0509 |
| GCATTTTA | 0.116 |
| TATGAAGA | 0.0773 |
| CGTGTGAG | 0.0244 |
| CATCGACC | -0.0514 |
| AAAACTCA | 0.0944 |
| ACGGCACT | 0.0185 |
| GAATGATA | 0.247 |
| CCGTCCTA | -0.111 |
| ACAGCTAT | -0.0144 |
| ACGCGTTG | 0.0622 |
| CAGTGACG | 0.00591 |
| GCTGTTAA | 0.0173 |
| TACATCGA | 0.1 |
| ATCGGGTA | -0.128 |
| CTTACGCC | -0.0773 |
| AGGAATCC | -0.00661 |
| CCAGTTCG | 0.0674 |
| CAGGCCCA | -0.234 |
| CCTGCGCA | 0.0615 |

Source: the supplement of paper PMC3334620
